Source: paper PMC8159967
No constants are given. Whether binding was seen depends on the method and setting. Binding seen in cells or lysates may run through a third protein. Some entries that bind do so weakly or less than the wild type.

Amino acid sequences for entries named in this document (tags omitted). Residues count along the entry.
UniProt P05106, residues 27-788: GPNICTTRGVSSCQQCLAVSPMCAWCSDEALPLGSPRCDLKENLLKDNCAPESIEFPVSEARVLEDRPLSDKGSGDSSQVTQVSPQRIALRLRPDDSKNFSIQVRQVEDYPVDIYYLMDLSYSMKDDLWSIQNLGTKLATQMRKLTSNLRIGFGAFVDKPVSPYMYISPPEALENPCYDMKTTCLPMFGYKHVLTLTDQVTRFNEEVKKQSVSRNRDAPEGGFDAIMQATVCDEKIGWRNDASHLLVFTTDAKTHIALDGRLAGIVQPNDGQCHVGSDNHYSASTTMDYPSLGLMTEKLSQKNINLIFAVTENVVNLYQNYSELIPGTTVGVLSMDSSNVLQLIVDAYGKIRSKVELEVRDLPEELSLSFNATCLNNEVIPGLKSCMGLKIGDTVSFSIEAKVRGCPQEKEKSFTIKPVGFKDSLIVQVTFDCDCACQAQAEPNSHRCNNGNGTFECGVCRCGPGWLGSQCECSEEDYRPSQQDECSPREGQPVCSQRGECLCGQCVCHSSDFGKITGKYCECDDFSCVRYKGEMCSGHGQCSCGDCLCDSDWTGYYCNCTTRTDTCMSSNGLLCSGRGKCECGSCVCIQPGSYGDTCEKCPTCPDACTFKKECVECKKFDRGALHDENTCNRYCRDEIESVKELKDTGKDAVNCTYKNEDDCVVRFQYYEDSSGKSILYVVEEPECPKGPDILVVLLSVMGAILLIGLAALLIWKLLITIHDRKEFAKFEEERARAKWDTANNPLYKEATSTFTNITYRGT
UniProt P05107, residues 23-769: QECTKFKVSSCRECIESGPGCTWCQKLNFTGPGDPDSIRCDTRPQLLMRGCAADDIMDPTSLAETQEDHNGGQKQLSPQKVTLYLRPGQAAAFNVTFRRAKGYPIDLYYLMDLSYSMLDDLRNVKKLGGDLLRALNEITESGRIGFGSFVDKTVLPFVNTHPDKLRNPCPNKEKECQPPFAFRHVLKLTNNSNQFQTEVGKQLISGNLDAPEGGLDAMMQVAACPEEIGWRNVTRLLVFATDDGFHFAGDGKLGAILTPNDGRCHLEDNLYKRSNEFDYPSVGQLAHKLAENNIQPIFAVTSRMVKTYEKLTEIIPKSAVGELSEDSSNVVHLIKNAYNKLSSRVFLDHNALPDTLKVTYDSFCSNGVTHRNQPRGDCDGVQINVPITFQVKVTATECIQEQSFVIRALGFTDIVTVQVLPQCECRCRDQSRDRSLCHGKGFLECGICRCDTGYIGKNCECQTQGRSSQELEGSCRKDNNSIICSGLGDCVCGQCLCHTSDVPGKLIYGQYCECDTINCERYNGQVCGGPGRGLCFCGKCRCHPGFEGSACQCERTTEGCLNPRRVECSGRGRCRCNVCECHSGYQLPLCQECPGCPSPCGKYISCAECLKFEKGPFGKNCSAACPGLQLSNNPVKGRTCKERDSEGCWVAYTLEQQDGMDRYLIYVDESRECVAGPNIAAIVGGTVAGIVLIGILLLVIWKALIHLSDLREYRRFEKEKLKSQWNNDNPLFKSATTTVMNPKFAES
UniProt Q14344: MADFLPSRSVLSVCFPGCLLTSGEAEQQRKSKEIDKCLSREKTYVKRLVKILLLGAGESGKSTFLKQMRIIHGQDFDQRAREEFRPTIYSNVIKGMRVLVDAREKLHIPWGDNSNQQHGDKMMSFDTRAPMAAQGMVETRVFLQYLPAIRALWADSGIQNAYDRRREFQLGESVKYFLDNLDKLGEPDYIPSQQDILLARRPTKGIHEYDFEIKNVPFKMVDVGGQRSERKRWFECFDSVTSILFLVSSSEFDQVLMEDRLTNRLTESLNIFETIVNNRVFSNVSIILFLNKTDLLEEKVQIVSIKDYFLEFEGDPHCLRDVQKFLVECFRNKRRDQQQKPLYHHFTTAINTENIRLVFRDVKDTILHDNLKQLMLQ

How the values were obtained:
[1] = target: integrin β3 subunit (human (endogenous in human platelets)) (UniProt P05106); test: co-IP; human platelets (5 × 10^8/mL) pretreated with MB2mP6 or control peptide HLPN (50 μM), stimulated with thrombin (0.025 U/mL) for various times, lysed in NP40 lysis buffer; precipitated with mouse anti-integrin β3 antibody M15 overnight at 4 °C and protein A/G agarose; blots for β3 and Gα13
[2] = target: integrin β2 subunit (human (endogenous in THP-1)) (UniProt P05107); test: co-IP; PMA-differentiated THP-1 macrophages pretreated with MB2mP6 or control peptide HLPN (50 μM), stimulated with LPS (100 ng/mL) for various times, lysed in NP40 lysis buffer; precipitated with mouse anti-integrin β2 antibody 1.BB.246 overnight at 4 °C and protein A/G agarose; blots for β2 and Gα13
[3] = target: Gα13 (human (endogenous in THP-1 cells and human platelets)) (UniProt Q14344); test: co-IP; synthetic MB2mP6 in HLPN (50 μM) given to THP-1-derived macrophages before LPS and lysis; read-out: less Gα13 in the anti-β2 immunoprecipitate than with scrambled peptide; only the binder purified

| Molecule | binding [1] | binding [2] | binding [3] |
| --- | --- | --- | --- |
| Gα13 (from UniProt Q14344 1-377) | binds | binds | – |
| FEKEKL (Myr- on the N-terminus (Myr-FEKEKL)) [MB2mP6 (Myr-FEKEKL)] | – | – | binds |
